Measured values from article PMC12902025.
These are yes or no findings as the source states them, for the method shown. Binding seen in cells or lysates may run through a third protein. Some entries that bind do so weakly or less than the wild type.

Chains of the proteins cited; added tags and fusions are not shown. Residues count along the entry.
UniProt P06733: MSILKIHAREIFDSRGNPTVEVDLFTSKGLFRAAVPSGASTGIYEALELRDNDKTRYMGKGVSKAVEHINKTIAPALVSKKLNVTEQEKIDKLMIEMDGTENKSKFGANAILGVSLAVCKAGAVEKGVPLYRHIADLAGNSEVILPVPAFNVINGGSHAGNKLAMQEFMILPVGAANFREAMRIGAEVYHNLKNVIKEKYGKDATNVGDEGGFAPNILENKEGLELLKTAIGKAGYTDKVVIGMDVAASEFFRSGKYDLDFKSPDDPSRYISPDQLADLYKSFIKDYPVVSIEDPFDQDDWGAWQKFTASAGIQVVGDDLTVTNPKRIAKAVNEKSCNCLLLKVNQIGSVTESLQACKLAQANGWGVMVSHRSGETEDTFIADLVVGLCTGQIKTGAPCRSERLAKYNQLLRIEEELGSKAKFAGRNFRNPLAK
UniProt P06731, residues 35-685: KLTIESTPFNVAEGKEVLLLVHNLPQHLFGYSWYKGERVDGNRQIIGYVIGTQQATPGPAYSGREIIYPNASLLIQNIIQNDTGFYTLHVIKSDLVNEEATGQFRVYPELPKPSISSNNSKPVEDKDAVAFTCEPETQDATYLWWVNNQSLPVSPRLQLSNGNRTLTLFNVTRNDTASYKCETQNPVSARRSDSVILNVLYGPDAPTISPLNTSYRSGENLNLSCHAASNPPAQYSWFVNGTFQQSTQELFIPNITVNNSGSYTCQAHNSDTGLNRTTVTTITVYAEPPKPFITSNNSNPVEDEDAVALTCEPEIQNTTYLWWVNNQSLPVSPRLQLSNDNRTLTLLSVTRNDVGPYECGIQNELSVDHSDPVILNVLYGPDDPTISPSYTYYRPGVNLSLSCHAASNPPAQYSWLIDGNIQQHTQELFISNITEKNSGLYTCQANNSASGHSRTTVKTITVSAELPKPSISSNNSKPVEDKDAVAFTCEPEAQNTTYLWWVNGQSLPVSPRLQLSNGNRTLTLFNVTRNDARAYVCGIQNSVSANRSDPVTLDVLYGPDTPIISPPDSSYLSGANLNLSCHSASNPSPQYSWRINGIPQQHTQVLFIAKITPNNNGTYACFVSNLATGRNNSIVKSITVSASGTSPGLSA
UniProt P09104: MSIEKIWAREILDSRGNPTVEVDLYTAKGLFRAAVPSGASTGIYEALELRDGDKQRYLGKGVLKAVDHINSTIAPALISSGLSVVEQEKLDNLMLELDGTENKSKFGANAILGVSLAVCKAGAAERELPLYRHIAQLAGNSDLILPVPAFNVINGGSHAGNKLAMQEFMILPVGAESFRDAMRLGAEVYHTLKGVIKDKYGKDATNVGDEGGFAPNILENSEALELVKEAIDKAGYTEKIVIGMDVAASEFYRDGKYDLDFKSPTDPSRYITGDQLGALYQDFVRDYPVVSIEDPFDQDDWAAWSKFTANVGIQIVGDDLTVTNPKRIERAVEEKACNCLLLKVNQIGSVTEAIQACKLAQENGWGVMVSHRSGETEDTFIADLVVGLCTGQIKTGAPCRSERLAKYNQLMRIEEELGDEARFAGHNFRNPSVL

T1: HSPA13 (UniProt P48723)
T1 sequence: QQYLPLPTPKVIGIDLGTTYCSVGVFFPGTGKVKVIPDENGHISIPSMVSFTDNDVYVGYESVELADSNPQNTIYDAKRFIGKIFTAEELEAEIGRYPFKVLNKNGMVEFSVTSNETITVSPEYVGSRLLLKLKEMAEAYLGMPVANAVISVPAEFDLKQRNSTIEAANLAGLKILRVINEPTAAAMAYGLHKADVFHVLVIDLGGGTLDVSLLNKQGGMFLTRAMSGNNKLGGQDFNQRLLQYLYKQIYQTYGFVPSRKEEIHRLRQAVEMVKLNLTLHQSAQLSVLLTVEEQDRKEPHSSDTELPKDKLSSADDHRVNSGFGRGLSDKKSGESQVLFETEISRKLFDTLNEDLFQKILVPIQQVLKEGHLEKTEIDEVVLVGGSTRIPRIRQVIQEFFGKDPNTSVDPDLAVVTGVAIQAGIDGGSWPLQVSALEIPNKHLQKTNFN

B1: GPC1 (protein, UniProt P35052 24-530)
chain: DPASKSRSCGEVRQIYGAKGFSLSDVPQAEISGEHLRICPQGYTCCTSEMEENLANRSHAELETALRDSSRVLQAMLATQLRSFDDHFQHLLNDSERTLQATFPGAFGELYTQNARAFRDLYSELRLYYRGANLHLEETLAEFWARLLERLFKQLHPQLLLPDDYLDCLGKQAEALRPFGEAPRELRLRATRAFVAARSFVQGLGVASDVVRKVAQVPLGPECSRAVMKLVYCAHCLGVPGARPCPDYCRNVLKGCLANQADLDAEWRNLLDSMVLITDKFWGTSGVESVIGSVHTWLAEAINALQDNRDTLTAKVIQGCGNPKVNPQGPGPEEKRRRGKLAPRERPPSGTLEKLVSEAKAQLRDVQDFWISLPGTLCSEKMALSTASDDRCWNGMARGRYLPEVMGDGLANQINNPEVEVDITKPDMTIRQQIMQLKIMTNRLRSAYNGNDVDFQDASDDGSGSGSGDGCLDDLCSRKVSRKSSSSRTPLTHALPGLSEQEGQKTS
B2: transforming growth factor beta induced (TGFBI) (protein, UniProt Q15582 24-683)
chain: GPAKSPYQLVLQHSRLRGRQHGPNVCAVQKVIGTNRKYFTNCKQWYQRKICGKSTVISYECCPGYEKVPGEKGCPAALPLSNLYETLGVVGSTTTQLYTDRTEKLRPEMEGPGSFTIFAPSNEAWASLPAEVLDSLVSNVNIELLNALRYHMVGRRVLTDELKHGMTLTSMYQNSNIQIHHYPNGIVTVNCARLLKADHHATNGVVHLIDKVISTITNNIQQIIEIEDTFETLRAAVAASGLNTMLEGNGQYTLLAPTNEAFEKIPSETLNRILGDPEALRDLLNNHILKSAMCAEAIVAGLSVETLEGTTLEVGCSGDMLTINGKAIISNKDILATNGVIHYIDELLIPDSAKTLFELAAESDVSTAIDLFRQAGLGNHLSGSERLTLLAPLNSVFKDGTPPIDAHTRNLLRNHIIKDQLASKYLYHGQTLETLGGKKLRVFVYRNSLCIENSCIAAHDKRGRYGTLFTMDRVLTPPMGTVMDVLKGDNRFSMLVAAIQSAGLTETLNREGVYTVFAPTNEAFRALPPRERSRLLGDAKELANILKYHIGDEILVSGGIGALVRLKSLQGDKLEVSLKNNVVSVNKEPVAEPDIMATNGVVHVITNVLQPPANRPQERGDELADSALEIFKQASAFSRASQRSVRLAPVYQKLLERMKH

Biological target: T1, HSPA13
Assay: co-IP; HSPA13 immunoprecipitation on isolated supermere fractions (intact particles); depletion of the other proteins from the supermere fraction relative to isotype control

Row | Molecule | binding
1 | ENO1 (from UniProt P06733 1-434) | binds
2 | CEA (CEACAM5) (from UniProt P06731 35-685) | binds
3 | ENO2 (from UniProt P09104 1-434) | binds
4 | B1 | binds
5 | B2 | binds
